# Data published in the supplement of paper PMC4604168 (melanoma cell lines).
# Some of the results follow. Many values rest on one well or one pass, so single values are uncertain.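 Imaging used 1,536-well plates; nuclei positive for cleaved PARP by antibody were divided by total DNA-stained nuclei to yield the apoptosis fraction. Doses for screening kept most cells viable, and cell lines differ markedly in resting and induced cleaved-PARP levels.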
# Key:
# Assay in all cases: cleaved PARP positive nuclei fraction relative to DMSO control; melanoma cells; higher = more apoptosis
# Settings in all cases: library dose: low library concentration; 72 h
# [1] = test system: MZ2-MEL
# [2] = test system: MeWo
# [3] = test system: RPMI7951
# [4] = test system: RVH-421
# [5] = test system: SkMel28
# [6] = test system: SkMel30
# [7] = test system: SkMel5
# [8] = test system: UACC257
# [9] = test system: UACC62
Compound,cleaved PARP positive nuclei fraction [1] [%],cleaved PARP positive nuclei fraction [2] [%],cleaved PARP positive nuclei fraction [3] [%],cleaved PARP positive nuclei fraction [4] [%],cleaved PARP positive nuclei fraction [5] [%],cleaved PARP positive nuclei fraction [6] [%],cleaved PARP positive nuclei fraction [7] [%],cleaved PARP positive nuclei fraction [8] [%],cleaved PARP positive nuclei fraction [9] [%]
"COc1ccc(COc2ccc(Cc3cnc(N)nc3N)cc2OC)cc1 + Cn1cc(/C=C2\C(=O)Nc3cccnc32)c2ccccc21 [GW441756] (first compound 1 µM, partner dose 0.4 µM)",72.6,74,39.2,152,174,60.1,35.4,153,78.8
"COc1cc2c(Oc3ccc4[nH]c(C)cc4c3F)ncnc2cc1OCCCN1CCCC1 [cediranib] + O=C(Nc1ccccc1)c1cc([N+](=O)[O-])ccc1Cl [GW9662] (first compound 0.4 µM, partner dose 2 µM)",97.6,38.6,84,65.3,85.1,160,109,104,84.8
"CCc1ccc(CCOc2ccc(CC3SC(=O)NC3=O)cc2)nc1 (configuration not stated) [pioglitazone] + Oc1cc(-c2nc(-c3ccccc3)[nH]c2-c2ccncc2)ccc1Cl [L779450] (first compound 2 µM, partner dose 0.2 µM)",76.6,36.6,243,103,190,139,148,285,358
"CCc1ccc(CCOc2ccc(CC3SC(=O)NC3=O)cc2)nc1 (configuration not stated) [pioglitazone] + Cc1cc([N+](=O)[O-])ccc1NS(=O)(=O)c1cc(Cl)ccc1Cl [FH535] (first compound 2 µM, partner dose 1 µM)",132,148,66.2,34.6,72.7,100,35.4,71.7,30.7
"Cc1cc([N+](=O)[O-])ccc1NS(=O)(=O)c1cc(Cl)ccc1Cl + Cn1cc(/C=C2\C(=O)Nc3cccnc32)c2ccccc21 [GW441756] (first compound 1 µM, partner dose 0.4 µM)",137,27.2,67,87.4,79.4,23.5,78.9,145,171
"CCc1ccc(CCOc2ccc(CC3SC(=O)NC3=O)cc2)nc1 (configuration not stated) [pioglitazone] + O=c1cc(-c2cccc3c2Sc2ccccc2S3)oc(N2CCOCC2)c1 [KU55933] (first compound 2 µM, partner dose 1 µM)",104,109,176,86.9,176,380,122,121,72.4
"O=C(O)c1ccc(-c2c[nH]c3ncc(-c4ccccc4)cc23)cc1C1CCCC1 + COc1ccc2c(c1)CCC1C2CCC2(C)C(NCCCCCCN3C(=O)C=CC3=O)CCC12 [U73122] (first compound 0.16 µM, partner dose 0.4 µM)",81.9,106,93.2,107,87.5,19.4,66.1,37.5,51.1
"O=C1NC(=O)/C(=C/c2ccc(-c3ccc(F)cc3O)o2)S1 + Oc1nc(-c2ccc(C(F)(F)F)cc2)nc2c1CSCC2 [XAV939] (first compound 1 µM, partner dose 2 µM)",60,137,156,139,145,42,91.8,142,93.5
"CCN(CC)CCCCNc1ncc2cc(-c3cc(OC)cc(OC)c3)c(NC(=O)NC(C)(C)C)nc2n1 + O=c1cc(-c2cccc3c2Sc2ccccc2S3)oc(N2CCOCC2)c1 [KU55933] (first compound 0.1 µM, partner dose 1 µM)",87.9,198,76.4,80.1,99.8,321,53.4,158,31.6
"COC(=O)c1sccc1S(=O)(=O)Nc1ccc(Nc2ccccc2)cc1OC + c1cc(-c2cnn3cc(-c4ccc(OCCN5CCCCC5)cc4)cnc23)ccn1 [Dorsomorphin] (first compound 1 µM, partner dose 0.4 µM)",57.1,102,84.1,68.8,164,14,102,92.2,48.4
"O=S(=O)(c1ccccc1)N(CC(F)(F)F)c1ccc(C(O)(C(F)(F)F)C(F)(F)F)cc1 + Cc1cc([N+](=O)[O-])ccc1NS(=O)(=O)c1cc(Cl)ccc1Cl [FH535] (first compound 1.4 µM, partner dose 1 µM)",59.6,57.7,75.1,65.5,105,241,129,64.9,98
"O=C(O)c1ccc(-c2c[nH]c3ncc(-c4ccccc4)cc23)cc1C1CCCC1 + O=c1cc(-c2cccc3c2Sc2ccccc2S3)oc(N2CCOCC2)c1 [KU55933] (first compound 0.16 µM, partner dose 1 µM)",181,85,118,34.5,54,145,29.2,49.3,162
"CCc1ccc(CCOc2ccc(CC3SC(=O)NC3=O)cc2)nc1 (configuration not stated) [pioglitazone] + CC(C)CCN1c2nc(Nc3cc(F)c(O)c(F)c3)ncc2N(C)C(=O)C1C [BID1870] (first compound 2 µM, partner dose 0.2 µM)",83.8,244,90.8,147,159,47,38.8,107,50.7
"CCc1ccc(CCOc2ccc(CC3SC(=O)NC3=O)cc2)nc1 (configuration not stated) [pioglitazone] + CCCCCCCCCCCC1=C(O)C(=O)C=C(O)C1=O [Embelin] (first compound 2 µM, partner dose 1.2 µM)",96.7,37.1,142,82.8,36,17,116,49.3,68.2
"O=C(Nc1ccccc1)c1cc([N+](=O)[O-])ccc1Cl + O=C(O)C(=O)Nc1sc2c(c1C(=O)O)CCNC2 [TCS401] (first compound 2 µM, partner dose 1.66667 µM)",184,54.6,186,123,192,18.9,101,141,86.8
"COC(=O)c1sccc1S(=O)(=O)Nc1ccc(Nc2ccccc2)cc1OC + CC(C)CCN1c2nc(Nc3cc(F)c(O)c(F)c3)ncc2N(C)C(=O)C1C [BID1870] (first compound 1 µM, partner dose 0.2 µM)",23.4,58.1,146,32.3,177,40.5,92.4,119,206
"CN(NC(=O)CC(=O)NN(C)C(=S)c1ccccc1)C(=S)c1ccccc1 + CCCCCCCCCCCC1=C(O)C(=O)C=C(O)C1=O [Embelin] (first compound 0.006 µM, partner dose 1.2 µM)",156,24.4,83.1,106,30.4,89.5,112,118,50.6
"Cc1cc([N+](=O)[O-])ccc1NS(=O)(=O)c1cc(Cl)ccc1Cl + COc1cc(N2CCC(N3CCN(C)CC3)CC2)ccc1Nc1ncc(Cl)c(Nc2ccccc2S(=O)(=O)C(C)C)n1 [NVP-TAE684] (first compound 1 µM, partner dose 0.08 µM)",50,250,80.1,410,72.3,46.1,126,169,141
"COc1ccc2c(c1)CCC1C2CCC2(C)C(NCCCCCCN3C(=O)C=CC3=O)CCC12 (configuration not stated) + CCCCCCCCCCCC1=C(O)C(=O)C=C(O)C1=O [Embelin] (first compound 0.4 µM, partner dose 1.2 µM)",118,35.4,91.2,102,195,14.7,169,77.7,74.8
"O=C(Nc1ccccc1)c1cc([N+](=O)[O-])ccc1Cl + COc1ccc(COc2ccc(Cc3cnc(N)nc3N)cc2OC)cc1 [GW2580] (first compound 2 µM, partner dose 1 µM)",83.9,72.9,100,48.2,81.7,46.1,198,100,117
"CN(C)S(=O)(=O)c1ccc2c(c1)/C(=C/c1cc3c([nH]1)CCCC3)C(=O)N2 + c1cc(-c2cnn3cc(-c4ccc(OCCN5CCCCC5)cc4)cnc23)ccn1 [Dorsomorphin] (first compound 0.4 µM, partner dose 0.4 µM)",114,68.7,81.2,37.1,236,70.4,269,53.7,241
"COc1cc2c(Oc3ccc4[nH]c(C)cc4c3F)ncnc2cc1OCCCN1CCCC1 [cediranib] + COc1ccc(COc2ccc(Cc3cnc(N)nc3N)cc2OC)cc1 [GW2580] (first compound 0.4 µM, partner dose 1 µM)",86.4,80.7,45.2,107,100,21.2,58.7,93.8,72.3
"CN(NC(=O)CC(=O)NN(C)C(=S)c1ccccc1)C(=S)c1ccccc1 + CCc1ccc(CCOc2ccc(CC3SC(=O)NC3=O)cc2)nc1 [pioglitazone] (first compound 0.006 µM, partner dose 2 µM)",112,108,57.3,96.6,204,14.2,132,126,191

# Six entries from above, bar-delimited.
Compound | cleaved PARP positive nuclei fraction [1] [%] | cleaved PARP positive nuclei fraction [2] [%] | cleaved PARP positive nuclei fraction [3] [%] | cleaved PARP positive nuclei fraction [4] [%] | cleaved PARP positive nuclei fraction [5] [%] | cleaved PARP positive nuclei fraction [6] [%] | cleaved PARP positive nuclei fraction [7] [%] | cleaved PARP positive nuclei fraction [8] [%] | cleaved PARP positive nuclei fraction [9] [%]
O=C(O)c1ccc(-c2c[nH]c3ncc(-c4ccccc4)cc23)cc1C1CCCC1 + O=c1cc(-c2cccc3c2Sc2ccccc2S3)oc(N2CCOCC2)c1 [KU55933] (first compound 0.16 µM, partner dose 1 µM) | 181 | 85 | 118 | 34.5 | 54 | 145 | 29.2 | 49.3 | 162
CCc1ccc(CCOc2ccc(CC3SC(=O)NC3=O)cc2)nc1 (configuration not stated) [pioglitazone] + CC(C)CCN1c2nc(Nc3cc(F)c(O)c(F)c3)ncc2N(C)C(=O)C1C [BID1870] (first compound 2 µM, partner dose 0.2 µM) | 83.8 | 244 | 90.8 | 147 | 159 | 47 | 38.8 | 107 | 50.7
CCc1ccc(CCOc2ccc(CC3SC(=O)NC3=O)cc2)nc1 (configuration not stated) [pioglitazone] + CCCCCCCCCCCC1=C(O)C(=O)C=C(O)C1=O [Embelin] (first compound 2 µM, partner dose 1.2 µM) | 96.7 | 37.1 | 142 | 82.8 | 36 | 17 | 116 | 49.3 | 68.2
O=C(Nc1ccccc1)c1cc([N+](=O)[O-])ccc1Cl + O=C(O)C(=O)Nc1sc2c(c1C(=O)O)CCNC2 [TCS401] (first compound 2 µM, partner dose 1.66667 µM) | 184 | 54.6 | 186 | 123 | 192 | 18.9 | 101 | 141 | 86.8
COC(=O)c1sccc1S(=O)(=O)Nc1ccc(Nc2ccccc2)cc1OC + CC(C)CCN1c2nc(Nc3cc(F)c(O)c(F)c3)ncc2N(C)C(=O)C1C [BID1870] (first compound 1 µM, partner dose 0.2 µM) | 23.4 | 58.1 | 146 | 32.3 | 177 | 40.5 | 92.4 | 119 | 206
CN(NC(=O)CC(=O)NN(C)C(=S)c1ccccc1)C(=S)c1ccccc1 + CCCCCCCCCCCC1=C(O)C(=O)C=C(O)C1=O [Embelin] (first compound 0.006 µM, partner dose 1.2 µM) | 156 | 24.4 | 83.1 | 106 | 30.4 | 89.5 | 112 | 118 | 50.6
